Results reported in the supplement of paper PMC12067093, “Discovery and optimisation of a covalent ligand for TRIM25 and its application to targeted protein ubiquitination” (Chemical Science, 2025).
This is one part of the list.

By UniProt entry, the sequences of proteins in these tests, tags left out. Where a name states a change or a piece, a line headed by the entry shows the natural chain unless it says otherwise.
UniProt O75534: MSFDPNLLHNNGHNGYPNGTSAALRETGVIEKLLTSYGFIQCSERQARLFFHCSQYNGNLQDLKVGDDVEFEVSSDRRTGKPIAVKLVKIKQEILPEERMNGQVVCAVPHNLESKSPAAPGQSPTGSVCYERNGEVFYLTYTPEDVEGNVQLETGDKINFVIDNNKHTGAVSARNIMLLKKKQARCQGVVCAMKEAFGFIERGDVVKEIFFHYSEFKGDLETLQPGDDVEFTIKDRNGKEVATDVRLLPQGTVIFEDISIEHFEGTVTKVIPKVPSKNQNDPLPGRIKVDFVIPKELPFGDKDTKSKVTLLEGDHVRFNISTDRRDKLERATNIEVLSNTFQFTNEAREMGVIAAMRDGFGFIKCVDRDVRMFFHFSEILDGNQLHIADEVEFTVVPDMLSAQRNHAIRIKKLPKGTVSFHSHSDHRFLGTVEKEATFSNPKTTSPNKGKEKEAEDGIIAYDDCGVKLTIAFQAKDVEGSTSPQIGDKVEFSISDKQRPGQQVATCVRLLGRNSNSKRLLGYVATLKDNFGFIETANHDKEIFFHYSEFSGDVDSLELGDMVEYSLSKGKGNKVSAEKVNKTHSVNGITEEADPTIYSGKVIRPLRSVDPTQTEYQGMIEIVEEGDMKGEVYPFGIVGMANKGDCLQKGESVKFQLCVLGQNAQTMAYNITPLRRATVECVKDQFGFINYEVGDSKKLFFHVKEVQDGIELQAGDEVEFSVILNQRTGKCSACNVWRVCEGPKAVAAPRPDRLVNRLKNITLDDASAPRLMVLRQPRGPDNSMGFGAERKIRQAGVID
UniProt Q9P2I0: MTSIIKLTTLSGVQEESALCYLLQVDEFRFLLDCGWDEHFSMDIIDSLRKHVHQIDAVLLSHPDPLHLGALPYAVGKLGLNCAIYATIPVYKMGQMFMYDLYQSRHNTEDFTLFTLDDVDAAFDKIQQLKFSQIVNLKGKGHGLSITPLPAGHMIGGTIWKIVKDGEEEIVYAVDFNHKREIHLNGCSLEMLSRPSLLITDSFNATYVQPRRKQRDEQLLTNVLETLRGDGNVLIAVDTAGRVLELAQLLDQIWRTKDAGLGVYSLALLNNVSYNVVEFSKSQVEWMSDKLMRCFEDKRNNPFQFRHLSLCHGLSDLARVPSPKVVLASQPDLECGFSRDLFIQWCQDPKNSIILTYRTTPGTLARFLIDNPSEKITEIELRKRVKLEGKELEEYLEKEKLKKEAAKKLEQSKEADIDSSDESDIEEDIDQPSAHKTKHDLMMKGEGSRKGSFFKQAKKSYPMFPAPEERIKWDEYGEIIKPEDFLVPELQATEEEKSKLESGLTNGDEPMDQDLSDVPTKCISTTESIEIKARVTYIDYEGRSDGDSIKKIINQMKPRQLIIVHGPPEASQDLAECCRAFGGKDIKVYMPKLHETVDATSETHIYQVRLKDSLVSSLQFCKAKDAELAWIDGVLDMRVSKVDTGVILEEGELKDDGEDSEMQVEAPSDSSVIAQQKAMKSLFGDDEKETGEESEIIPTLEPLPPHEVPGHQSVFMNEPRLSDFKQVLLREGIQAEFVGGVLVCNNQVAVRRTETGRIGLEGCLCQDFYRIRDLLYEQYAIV
UniProt Q9UKF6: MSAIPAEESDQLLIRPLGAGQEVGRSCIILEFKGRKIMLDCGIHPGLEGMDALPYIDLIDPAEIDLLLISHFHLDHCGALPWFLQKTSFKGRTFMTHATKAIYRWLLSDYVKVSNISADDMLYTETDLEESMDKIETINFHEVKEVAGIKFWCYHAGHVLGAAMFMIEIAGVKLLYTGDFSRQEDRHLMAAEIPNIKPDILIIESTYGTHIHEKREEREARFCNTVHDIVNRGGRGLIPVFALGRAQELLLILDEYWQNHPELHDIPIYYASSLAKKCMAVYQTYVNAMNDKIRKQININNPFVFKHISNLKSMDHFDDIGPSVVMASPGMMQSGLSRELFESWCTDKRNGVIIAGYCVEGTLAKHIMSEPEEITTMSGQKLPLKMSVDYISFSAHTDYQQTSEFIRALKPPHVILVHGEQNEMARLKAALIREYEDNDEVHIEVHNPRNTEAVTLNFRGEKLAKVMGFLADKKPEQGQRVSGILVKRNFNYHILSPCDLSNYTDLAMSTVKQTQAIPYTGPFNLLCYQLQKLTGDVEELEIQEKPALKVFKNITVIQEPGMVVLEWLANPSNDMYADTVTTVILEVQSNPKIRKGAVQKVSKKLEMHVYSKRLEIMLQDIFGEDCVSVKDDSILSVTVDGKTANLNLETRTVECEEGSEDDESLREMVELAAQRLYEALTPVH
UniProt Q9Y4K1: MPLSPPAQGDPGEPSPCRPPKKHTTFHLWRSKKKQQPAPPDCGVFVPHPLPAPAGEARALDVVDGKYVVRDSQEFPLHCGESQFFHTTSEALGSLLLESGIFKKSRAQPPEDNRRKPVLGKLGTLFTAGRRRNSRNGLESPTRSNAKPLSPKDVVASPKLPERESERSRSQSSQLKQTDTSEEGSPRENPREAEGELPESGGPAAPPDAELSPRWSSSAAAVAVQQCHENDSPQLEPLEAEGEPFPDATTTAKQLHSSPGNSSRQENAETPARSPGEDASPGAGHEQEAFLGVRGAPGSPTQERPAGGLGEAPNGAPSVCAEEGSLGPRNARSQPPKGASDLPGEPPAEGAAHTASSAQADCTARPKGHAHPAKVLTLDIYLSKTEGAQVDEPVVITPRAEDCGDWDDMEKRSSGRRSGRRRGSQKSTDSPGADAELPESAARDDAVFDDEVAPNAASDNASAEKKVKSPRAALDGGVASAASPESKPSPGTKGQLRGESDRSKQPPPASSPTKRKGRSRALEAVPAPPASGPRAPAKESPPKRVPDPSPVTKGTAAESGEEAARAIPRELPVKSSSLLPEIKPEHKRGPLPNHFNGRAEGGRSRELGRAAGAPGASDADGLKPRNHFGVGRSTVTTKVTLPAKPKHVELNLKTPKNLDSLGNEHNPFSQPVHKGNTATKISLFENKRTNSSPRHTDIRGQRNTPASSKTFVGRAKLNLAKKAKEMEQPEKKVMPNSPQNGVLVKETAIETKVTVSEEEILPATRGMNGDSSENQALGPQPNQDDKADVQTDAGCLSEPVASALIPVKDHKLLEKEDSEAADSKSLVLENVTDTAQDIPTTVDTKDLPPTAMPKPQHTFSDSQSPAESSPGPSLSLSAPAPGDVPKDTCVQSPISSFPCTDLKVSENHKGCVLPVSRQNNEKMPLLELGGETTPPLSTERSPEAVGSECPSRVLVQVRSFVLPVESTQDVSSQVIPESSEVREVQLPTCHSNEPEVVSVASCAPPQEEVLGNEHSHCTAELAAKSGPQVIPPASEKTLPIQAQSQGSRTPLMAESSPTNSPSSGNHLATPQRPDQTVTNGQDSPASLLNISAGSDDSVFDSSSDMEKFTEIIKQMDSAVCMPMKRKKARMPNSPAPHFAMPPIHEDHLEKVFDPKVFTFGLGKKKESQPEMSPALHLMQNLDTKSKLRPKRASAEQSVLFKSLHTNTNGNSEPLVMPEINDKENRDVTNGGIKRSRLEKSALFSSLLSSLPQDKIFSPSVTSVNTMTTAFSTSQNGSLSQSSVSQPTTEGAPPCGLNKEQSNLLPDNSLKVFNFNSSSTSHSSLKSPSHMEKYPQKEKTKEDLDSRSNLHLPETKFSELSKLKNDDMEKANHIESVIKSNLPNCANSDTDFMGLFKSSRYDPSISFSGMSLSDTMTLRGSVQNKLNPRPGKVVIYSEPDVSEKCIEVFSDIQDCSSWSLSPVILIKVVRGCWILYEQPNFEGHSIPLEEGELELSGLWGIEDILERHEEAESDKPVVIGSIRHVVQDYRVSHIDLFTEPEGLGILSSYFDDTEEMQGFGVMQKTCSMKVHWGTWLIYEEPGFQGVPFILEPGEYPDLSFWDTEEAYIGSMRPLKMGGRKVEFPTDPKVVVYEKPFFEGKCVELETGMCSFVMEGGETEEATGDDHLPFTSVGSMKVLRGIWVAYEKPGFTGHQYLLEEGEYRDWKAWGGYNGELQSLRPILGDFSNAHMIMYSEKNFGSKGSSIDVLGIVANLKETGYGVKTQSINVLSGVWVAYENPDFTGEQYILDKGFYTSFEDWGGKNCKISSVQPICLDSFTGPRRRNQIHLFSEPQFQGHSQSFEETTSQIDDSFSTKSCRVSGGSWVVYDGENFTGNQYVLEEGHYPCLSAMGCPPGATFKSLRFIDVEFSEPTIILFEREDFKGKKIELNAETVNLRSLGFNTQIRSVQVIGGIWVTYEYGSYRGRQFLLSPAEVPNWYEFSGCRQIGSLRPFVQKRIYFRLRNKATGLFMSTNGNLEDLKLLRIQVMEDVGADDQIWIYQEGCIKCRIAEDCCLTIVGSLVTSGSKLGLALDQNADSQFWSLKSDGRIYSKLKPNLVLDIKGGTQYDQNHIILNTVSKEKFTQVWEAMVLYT
UniProt P57737: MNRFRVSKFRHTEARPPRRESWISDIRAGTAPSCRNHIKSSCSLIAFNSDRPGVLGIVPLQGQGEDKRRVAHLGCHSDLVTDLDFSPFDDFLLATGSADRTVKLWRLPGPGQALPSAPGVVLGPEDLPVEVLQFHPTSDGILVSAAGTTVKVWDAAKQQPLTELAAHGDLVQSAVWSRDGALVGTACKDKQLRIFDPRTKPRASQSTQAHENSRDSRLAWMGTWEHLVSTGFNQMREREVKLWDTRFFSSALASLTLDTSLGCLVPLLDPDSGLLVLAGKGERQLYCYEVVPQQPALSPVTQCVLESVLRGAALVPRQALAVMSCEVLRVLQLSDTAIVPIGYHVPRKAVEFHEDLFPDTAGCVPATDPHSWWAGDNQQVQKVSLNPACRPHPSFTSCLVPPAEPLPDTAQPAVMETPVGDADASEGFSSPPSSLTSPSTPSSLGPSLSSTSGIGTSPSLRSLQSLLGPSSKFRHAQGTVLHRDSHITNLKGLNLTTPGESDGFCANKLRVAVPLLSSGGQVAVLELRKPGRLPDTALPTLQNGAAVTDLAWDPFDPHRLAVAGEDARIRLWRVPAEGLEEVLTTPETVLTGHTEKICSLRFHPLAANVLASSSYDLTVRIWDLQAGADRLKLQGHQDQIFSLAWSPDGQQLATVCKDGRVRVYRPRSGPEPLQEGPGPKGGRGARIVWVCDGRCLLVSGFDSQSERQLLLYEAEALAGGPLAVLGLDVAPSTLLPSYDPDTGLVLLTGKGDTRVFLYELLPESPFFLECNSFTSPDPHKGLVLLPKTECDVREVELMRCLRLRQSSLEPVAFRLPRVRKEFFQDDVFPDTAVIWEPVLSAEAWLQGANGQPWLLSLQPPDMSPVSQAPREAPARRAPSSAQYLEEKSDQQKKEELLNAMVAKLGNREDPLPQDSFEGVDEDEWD
UniProt P23786: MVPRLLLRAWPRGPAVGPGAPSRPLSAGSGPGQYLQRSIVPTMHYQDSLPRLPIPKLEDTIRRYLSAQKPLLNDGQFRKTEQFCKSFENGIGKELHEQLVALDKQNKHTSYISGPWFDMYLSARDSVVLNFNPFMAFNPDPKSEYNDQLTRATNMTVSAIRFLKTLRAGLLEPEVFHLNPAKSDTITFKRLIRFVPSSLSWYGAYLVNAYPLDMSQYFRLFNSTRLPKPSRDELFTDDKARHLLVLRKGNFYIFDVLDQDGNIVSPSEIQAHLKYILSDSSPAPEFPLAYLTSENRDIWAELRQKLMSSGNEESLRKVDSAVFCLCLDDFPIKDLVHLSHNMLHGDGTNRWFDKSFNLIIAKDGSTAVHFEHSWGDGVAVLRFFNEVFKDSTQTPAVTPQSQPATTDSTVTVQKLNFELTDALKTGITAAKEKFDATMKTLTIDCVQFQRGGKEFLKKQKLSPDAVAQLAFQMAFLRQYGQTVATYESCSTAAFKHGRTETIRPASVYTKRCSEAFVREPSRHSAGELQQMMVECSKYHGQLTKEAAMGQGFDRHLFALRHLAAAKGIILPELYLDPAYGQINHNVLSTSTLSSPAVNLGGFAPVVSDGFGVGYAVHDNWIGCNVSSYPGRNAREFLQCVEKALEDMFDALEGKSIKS
UniProt P01034: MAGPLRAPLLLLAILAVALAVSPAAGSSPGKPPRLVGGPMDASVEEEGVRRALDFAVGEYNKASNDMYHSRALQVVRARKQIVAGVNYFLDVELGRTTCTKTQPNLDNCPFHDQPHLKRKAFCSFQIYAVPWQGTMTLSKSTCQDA
UniProt P48730: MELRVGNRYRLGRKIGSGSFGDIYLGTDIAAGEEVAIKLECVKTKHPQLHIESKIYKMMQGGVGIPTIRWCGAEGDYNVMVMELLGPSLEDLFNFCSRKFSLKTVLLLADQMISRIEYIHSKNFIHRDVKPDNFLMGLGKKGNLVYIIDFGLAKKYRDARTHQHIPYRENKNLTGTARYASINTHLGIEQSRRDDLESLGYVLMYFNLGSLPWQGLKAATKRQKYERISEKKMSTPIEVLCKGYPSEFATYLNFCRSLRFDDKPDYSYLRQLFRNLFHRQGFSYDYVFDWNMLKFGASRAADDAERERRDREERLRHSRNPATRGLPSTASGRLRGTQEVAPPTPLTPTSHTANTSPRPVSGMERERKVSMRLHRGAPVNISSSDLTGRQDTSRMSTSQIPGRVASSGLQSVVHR

What follows are targets tested with CC1Cc2ccccc2N1C(=O)C1CCCN(C1)C(=O)CCl (mixture of isomers) [TRIM25 ligand 11 (diastereomer mixture)] (assay: probe-labelled cysteine peptide fold change vs DMSO (competition) (log2 fold change); higher = less target engagement (more negative = stronger competition)). Settings: 50 µM; THP-1; incubation time: 4 h.
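Note: competitive chemoproteomic profiling in live THP-1 cells with an iodoacetamide desthiobiotin (IA-DTB) probe, comparing probe-labelled peptide intensities in compound-treated cells against DMSO-treated controls.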

**Q.** With “CSDE1_O75534_53_LFFHCSQYNGNLQDLK (UniProt O75534)” as the target, how does the “probe-labelled cysteine peptide fold change” value read?
**A.** The value was -0.294.

**Q.** How did the “probe-labelled cysteine peptide fold change” value turn out when “COQ9_O75208_153_DGSELILHFVTQCNTR (UniProt O75208)” was run?
**A.** Its value is 0.03.

**Q.** For “CPSF2_Q9P2I0_522_CISTTESIEIK (UniProt Q9P2I0)”, which “probe-labelled cysteine peptide fold change” value is on record?
**A.** The value was -0.113.

**Q.** Which “probe-labelled cysteine peptide fold change” value does the source give for “CPSF1_Q10570_324_ITLDCAQATFISYDK (UniProt Q10570)” here?
**A.** The value was 0.201.

**Q.** For “CRYL1_Q9Y2S2_125_VILSSSTSCLMPSK (UniProt Q9Y2S2)”, which “probe-labelled cysteine peptide fold change” value is on record?
**A.** Its value is -0.108.

**Q.** For “CPSF3_Q9UKF6_655_TVECEEGSEDDESLREMVELAAQR (UniProt Q9UKF6)”, which “probe-labelled cysteine peptide fold change” value is on record?
**A.** The value was 0.0979.

**Q.** How did the “probe-labelled cysteine peptide fold change” value turn out when “CTCF_P49711_557_YHDPNFVPAAFVCSK (UniProt P49711)” was run?
**A.** Its value is -0.00832.

**Q.** How did the “probe-labelled cysteine peptide fold change” value turn out when “CRYZL1_O95825_302_YLCILK (UniProt O95825)” was run?
**A.** The value was -0.019.

**Q.** Which “probe-labelled cysteine peptide fold change” value does the source give for “CRYBG1_Q9Y4K1_1404_ISSVQPICLDSFTGPR (UniProt Q9Y4K1)” here?
**A.** Its value is -0.0158.

**Q.** Which “probe-labelled cysteine peptide fold change” value does the source give for “CORO7_P57737_389_VSLNPACR (UniProt P57737)” here?
**A.** Its value is 0.103.

**Q.** How did the “probe-labelled cysteine peptide fold change” value turn out when “CPSF1_Q10570_1102_IELQEWEHVTCMK (UniProt Q10570)” was run?
**A.** The value was 0.00871.

**Q.** With “CPT2_P23786_512_CSEAFVREPSR (UniProt P23786)” as the target, how does the “probe-labelled cysteine peptide fold change” value read?
**A.** The value was -0.0581.

**Q.** How did the “probe-labelled cysteine peptide fold change” value turn out when “CPD_O75976_195_EGDCGFGDGGPSGASGR (UniProt O75976)” was run?
**A.** The value was 0.183.

**Q.** “CPT2_P23786_535_HSAGELQQMMVECSK (UniProt P23786)” was tested. Which “probe-labelled cysteine peptide fold change” value did it give?
**A.** Its value is -0.219.

**Q.** Which “probe-labelled cysteine peptide fold change” value does the source give for “CRIP2_P52943_150_DWHRPCLR (UniProt P52943)” here?
**A.** Its value is -0.0653.

**Q.** With “CORO1B_Q9BR76_195_LDSLHPDLIYNVSWNHNGSLFCSACK (UniProt Q9BR76)” as the target, how does the “probe-labelled cysteine peptide fold change” value read?
**A.** The value was 0.0874.

**Q.** For “CPVL_Q9H3G5_320_CTEPEDQLYYVK (UniProt Q9H3G5)”, which “probe-labelled cysteine peptide fold change” value is on record?
**A.** Its value is -0.168.

**Q.** How did the “probe-labelled cysteine peptide fold change” value turn out when “COQ8A_Q8NI60_641_AMFEEAYSNYCK (UniProt Q8NI60)” was run?
**A.** The value was -0.0413.

**Q.** How did the “probe-labelled cysteine peptide fold change” value turn out when “CRYBG1_Q9Y4K1_541_SPEAVGSECPSR (UniProt Q9Y4K1)” was run?
**A.** The value was -0.136.

**Q.** Which “probe-labelled cysteine peptide fold change” value does the source give for “CPSF3_Q9UKF6_223_FCNTVHDIVNR (UniProt Q9UKF6)” here?
**A.** The value was -0.11.

**Q.** For “CRYBG3_Q68DQ2_474_HEHLQLPESECSDK (UniProt Q68DQ2)”, which “probe-labelled cysteine peptide fold change” value is on record?
**A.** The value was -0.0291.

**Q.** For “CSTF1_Q05048_415_CIVHSPTNPGFMTCSDDFR (UniProt Q05048)”, which “probe-labelled cysteine peptide fold change” value is on record?
**A.** Its value is -0.0772.

**Q.** How did the “probe-labelled cysteine peptide fold change” value turn out when “CSK_P41240_422_NCWHLDAAMRPSFLQLR (UniProt P41240)” was run?
**A.** Its value is -0.125.

**Q.** With “CROT_Q9UKG9_210_AFVFDVIHEGCLVTPPELLR (UniProt Q9UKG9)” as the target, how does the “probe-labelled cysteine peptide fold change” value read?
**A.** Its value is 0.0924.

**Q.** Which “probe-labelled cysteine peptide fold change” value does the source give for “CSDE1_O75534_645_GDCLQK (UniProt O75534)” here?
**A.** Its value is 0.0924.

**Q.** How did the “probe-labelled cysteine peptide fold change” value turn out when “CST3_P01034_109_TQPNLDNCPFHDQPHLK (UniProt P01034)” was run?
**A.** Its value is -0.101.

**Q.** With “CRACR2A_Q9BSW2_220_NELECALK (UniProt Q9BSW2)” as the target, how does the “probe-labelled cysteine peptide fold change” value read?
**A.** The value was 0.0608.

**Q.** “CSNK1D_P48730_241_KMSTPIEVLCK (UniProt P48730)” was tested. Which “probe-labelled cysteine peptide fold change” value did it give?
**A.** Its value is -0.358.

**Q.** For “CTNNBL1_Q8WYA6_320_RHNPSTAEEQEMMENLFDSLCSCLMLSSNR (UniProt Q8WYA6)”, which “probe-labelled cysteine peptide fold change” value is on record?
**A.** The value was -0.223.

**Q.** How did the “probe-labelled cysteine peptide fold change” value turn out when “CORO7_P57737_505_GLNLTTPGESDGFCANK (UniProt P57737)” was run?
**A.** The value was 0.0442.

**Q.** How did the “probe-labelled cysteine peptide fold change” value turn out when “CSDE1_O75534_730_CSACNVWR (UniProt O75534)” was run?
**A.** Its value is 0.0371.

**Q.** “CORO1A_P31146_285_HLEEPLSLQELDTSSGVLLPFFDPDTNIVYLCGK (UniProt P31146)” was tested. Which “probe-labelled cysteine peptide fold change” value did it give?
**A.** The value was 0.03.

**Q.** Which “probe-labelled cysteine peptide fold change” value does the source give for “CSNK1D_P48730_241_MSTPIEVLCK (UniProt P48730)” here?
**A.** The value was -0.175.

**Q.** “CPSF2_Q9P2I0_763_IGLEGCLCQDFYR (UniProt Q9P2I0)” was tested. Which “probe-labelled cysteine peptide fold change” value did it give?
**A.** Its value is 0.316.

**Q.** Which “probe-labelled cysteine peptide fold change” value does the source give for “CTBS_Q01459_93_YDSELMCYAHSK (UniProt Q01459)” here?
**A.** The value was 0.0371.

**Q.** With “CSMD2_Q7Z408-3_2_CDAHLR (UniProt Q7Z408)” as the target, how does the “probe-labelled cysteine peptide fold change” value read?
**A.** Its value is -0.972.

**Q.** For “CORO1A_P31146_345_CEPIAMTVPR (UniProt P31146)”, which “probe-labelled cysteine peptide fold change” value is on record?
**A.** The value was -0.179.

**Q.** For “CPT1A_P50416_586_FCLTYEASMTR (UniProt P50416)”, which “probe-labelled cysteine peptide fold change” value is on record?
**A.** Its value is 0.222.

**Q.** With “CPSF1_Q10570_1020_CTAHYVAYHVESK (UniProt Q10570)” as the target, how does the “probe-labelled cysteine peptide fold change” value read?
**A.** Its value is 0.0337.
